The list does not hold the whole screen: it is rich in T/C values a quarter to a half above the control, in often repeated tests (any T/C) and in doses without a T/C. Other doses and runs of a compound stand elsewhere. T/C is the treated group as % of the vehicle group. Some entries give survivors of the animals treated and no T/C: the source files T/C as zero there, which appears to mark a toxic dose or a test without result, not a measured value. Some survivor counts are full or nearly so, which does not show that the dose was tolerated: the source hardly ever lists a survival T/C far under the control, and the zero likely stands for such cases as well. Survivors were counted at the toxicity check, usually on the fifth day, unless a day is given; later deaths do not show. Schedule codes are those of the source, taken here to give the interval after Q, in days (D) or hours (H), and the number of doses after X. Some entries were tested several times; the values are given in rising order. For survival time, the PubChem record calls one and a half times the control and up active, and a quarter to a half above the control has no call in these data; cut-offs in other NCI protocols can differ. Some T/C values are followed by the survivors on the day toxicity was checked, most often the fifth; without a count, all were alive then.
Test system: P1534 leukemia ip, CD2F1 mice, survival T/C
Test: NCI In Vivo Anticancer Drug Screen. Data for tumor model P1534 Leukemia (intraperitoneal) in CD2F1 (CDF1) mice
Conditions: T/C endpoint: mean survival time, higher T/C = longer survival
Experimental: The antitumor activity of compounds was measured in mice bearing transplantable tumors. Survival or tumor size were measured and the results are expressed as the measurement made in the treated group (T) divided by the measurement made in the vehicle treated control group (C). The tumor model used in this assay is P1534 Leukemia (intraperitoneal) in CD2F1 (CDF1) mice

[1] = dose: 200.0 mg/kg/injection, schedule: Q01DX010 (ip), vehicle: saline
[2] = dose: 150.0 mg/kg/injection, schedule: Q01DX005 (sc), vehicle: steroid suspending solution
[3] = dose: 300.0 mg/kg/injection, schedule: Q01DX005 (sc), vehicle: steroid suspending solution
[4] = dose: 4.0 mg/kg/injection, schedule: Q01DX010 (ip), vehicle: alkali diluted with saline
[5] = dose: 8.0 mg/kg/injection, schedule: Q01DX010 (ip), vehicle: alkali diluted with saline
[6] = dose: 16.0 mg/kg/injection, schedule: Q01DX010 (ip), vehicle: alkali diluted with saline

With `O=C(Nc1ccc(C2=NCCCN2)cc1)c1ccc(C(=O)Nc2ccc(C3=NCCCN3)cc2)cc1` the T/C (dose: 4.0 mg/kg/injection, schedule: Q01DX010 (ip), vehicle: saline) was 131 and 136 % of control and the T/C (dose: 8.0 mg/kg/injection, schedule: Q01DX010 (ip), vehicle: saline) was 127 % of control.
With `COc1cc2c(cc1Oc1c(Oc3c(O)c(OC)cc4c3C(CC(C)C)N(C)CC4)c(OC)cc3c1C(CC(C)C)N(C)CC3)C(CC(C)C)N(C)CC2` (centres undefined) the survivor count [1] was 5 of 6.
`CN(C)c1ccc(C(N)=O)cn1` was tested, and the T/C (dose: 6.0 mg/kg/injection, schedule: Q01DX010 (ip), vehicle: saline) was 130 % of control and the survivor count (dose: 12.0 mg/kg/injection, schedule: Q01DX010 (ip), vehicle: saline) was 6 of 6.
With `C[C@]12C=CC(=O)C=C1CC[C@@H]1[C@@H]2C(=O)C[C@@]2(C)[C@H]1CC[C@]2(O)C(=O)CO` the survivor count (dose: 25.0 mg/kg/injection, schedule: Q01DX010 (sc), vehicle: steroid suspending solution) was 6 of 6, the T/C [2] was 90, 94, 100, 113 % of control [8 of 10 alive] and the survivor count [2] was 6 of 10. The survivor count (dose: 200.0 mg/kg/injection, schedule: Q01DX005 (sc), vehicle: steroid suspending solution) was 10 of 10, the survivor count (dose: 250.0 mg/kg/injection, schedule: Q01DX005 (sc), vehicle: steroid suspending solution) was 10 of 10 and the T/C [3] was 93 [9 of 10 alive] and 94 % of control. The survivor count [3] was 0 of 10, 3 of 10, 6 of 10, 10 of 10.
For `NCCc1ccccc1`, the survivor count (dose: 125.0 mg/kg/injection, schedule: Q01DX010 (ip), vehicle: saline) was 4 of 6.
In the case of `NC(Cc1ccc(N(CCCl)CCCl)cc1)C(=O)O` (centres undefined), the T/C (dose: 2.0 mg/kg/injection, schedule: Q01DX010 (ip), vehicle: alkali diluted with saline) is reported as 116, 121, 122, 132 % of control [5 of 6 alive], the T/C [4] is reported as 94, 116, 123 % of control and the survivor count [4] is reported as 0 of 6. For the same compound, the T/C [5] was 92, 99, 106 % of control, the survivor count [5] was 6 of 6 and the T/C [6] was 97 and 101 % of control. For the same compound, the survivor count [6] was 6 of 6 and the survivor count (dose: 32.0 mg/kg/injection, schedule: Q01DX010 (ip), vehicle: alkali diluted with saline) was 2 of 6, 3 of 6, 6 of 6.
In the case of `O=c1cnn(C2OC(CO)C(O)C2O)c(=O)[nH]1` (centres undefined), the survivor count (dose: 1500.0 mg/kg/injection, schedule: Q01DX010 (ip), vehicle: saline) is reported as 6 of 6, the survivor count (dose: 1600.0 mg/kg/injection, schedule: Q01DX010 (ip), vehicle: saline) is reported as 5 of 6 and the survivor count (dose: 3100.0 mg/kg/injection, schedule: Q01DX010 (ip), vehicle: saline) is reported as 5 of 6. The survivor count (dose: 3200.0 mg/kg/injection, schedule: Q01DX010 (ip), vehicle: saline) was 1 of 6 and 6 of 6.
`N=C(N)SCc1c2ccccc2c(CSC(=N)N)c2ccccc12` was tested, and the T/C (dose: 1.25 mg/kg/injection, schedule: Q01DX010 (ip), vehicle: saline) was 139 % of control and the T/C (dose: 2.5 mg/kg/injection, schedule: Q01DX010 (ip), vehicle: saline) was 132 % of control.
`OCCN1CCC(CCCC2CCN(CCO)CC2)CC1` was tested, and the survivor count (dose: 25.0 mg/kg/injection, schedule: Q01DX010 (ip), vehicle: saline) was 5 of 6, the survivor count (dose: 50.0 mg/kg/injection, schedule: Q01DX010 (ip), vehicle: saline) was 5 of 6 and the survivor count (dose: 100.0 mg/kg/injection, schedule: Q01DX010 (ip), vehicle: saline) was 6 of 6. For the same compound, the survivor count [1] was 0 of 6.
With `COc1cc2c3c(c4ccc(O)cc4c2cc1OC)[C@@H](O)[C@@H]1CCCN1C3` the T/C (dose: 10.0 mg/kg/injection, schedule: Q01DX009 (ip), vehicle: water) was 134 % of control, the survivor count (dose: 25.0 mg/kg/injection, schedule: Q01DX010 (ip), vehicle: water) was 1 of 6 and the survivor count (dose: 35.0 mg/kg/injection, schedule: Q01DX010 (ip), vehicle: water) was 3 of 6.

Reference: PubChem BioAssay AID316 (DTP/NCI, 2004)
